According to patent publication US10266544B2, “Aryl substituted aminomethyl spectinomycin analogs as antibacterial agents” (ST. JUDE CHILDREN'S RESEARCH HOSPITAL, INC., priority 2013, dated 2019):
For at least one compound, name, drawing or mass did not settle the structure.

Tested on: S. pneumoniae
Assay: Resistance frequency determination and cross resistance of spontaneous mutants
Format: cell-based, Streptococcus pneumoniae
Details: cross resistance testing of 2 mutants

Row | Compound | susceptibility of mutants resistant to 2
1 | NC[C@H]1O[C@H](O[C@H]2[C@H](O)[C@@H](O[C@H]3O[C@H](CO)[C@@H](O)[C@H](N)[C@H]3O)[C@H](N)C[C@@H]2N)[C@H](O)[C@@H](O)[C@@H]1O [kanamycin] | susceptible
2 | C[C@H]1COc2c(N3CCN(C)CC3)c(F)cc3c(=O)c(C(=O)O)cn1c23 [levofloxacin] | susceptible
